{"sequences": {"note": "Protein sequences, listed by entry. Tags and fused reporters are not part of them.", "UniProt O15379, whole entry, looked up": "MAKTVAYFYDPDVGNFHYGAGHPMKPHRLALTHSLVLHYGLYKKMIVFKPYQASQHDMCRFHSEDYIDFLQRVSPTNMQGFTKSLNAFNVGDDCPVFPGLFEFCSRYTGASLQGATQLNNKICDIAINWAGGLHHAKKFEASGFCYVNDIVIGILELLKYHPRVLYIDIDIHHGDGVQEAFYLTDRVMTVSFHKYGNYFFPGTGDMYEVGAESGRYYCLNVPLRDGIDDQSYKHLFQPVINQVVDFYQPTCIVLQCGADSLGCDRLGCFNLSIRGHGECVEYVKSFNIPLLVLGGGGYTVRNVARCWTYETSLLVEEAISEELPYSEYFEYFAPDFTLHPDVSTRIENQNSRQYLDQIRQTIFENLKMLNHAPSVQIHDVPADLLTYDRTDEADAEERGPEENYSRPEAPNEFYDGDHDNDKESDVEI"}, "source": "PubChem BioAssay AID2718", "about": "(Broad Institute, 2010)", "note": "Values joined by “and” are separate entries in the source; they are usually repeats but may differ in a detail not shown here. Equal values may be shown once. In all, about 320,000 compounds went through this assay and about 480 (0.15%) were called active. Inconclusive means that the source gave no clear call. Such entries were picked first, then a sample of the others. Cut-off read from the data, not from the text of the source: active = inhibition above about 26% (passing the limit was not always enough); inconclusive = no clear call, values can overlap the other calls."}
{"molecular_target": "Histone deacetylase 3 (Homo sapiens) (UniProt O15379)", "test": "inhibition of human HDAC3 enzyme activity – biochemical, fluorescence, cell-free homogeneous, primary screen (AID 2718)", "conditions": "recombinant HDAC3, fluorogenic peptide/trypsin coupled, at 8.3 µM, hits give high values"}
{"compound": "N#C[C@H](O[C@@H]1O[C@H](CO[C@@H]2O[C@H](CO)[C@@H](O)[C@H](O)[C@H]2O)[C@@H](O)[C@H](O)[C@H]1O)c1ccccc1", "inhibition": "inactive: -6.1%"}
{"compound": "COc1ccc(C2SCC(=O)Nc3c2c(=O)[nH]n3C2CCCCC2)cc1", "note": "(stereo unspecified)", "inhibition": "inactive: -4.62%"}
{"compound": "COc1cc(C)cc2oc(=O)c(CC(=O)N3C[C@H]4C[C@@H](C3)c3cccc(=O)n3C4)c(C)c12", "inhibition": "inactive: -47%"}
{"compound": "CCc1ccc(NP(=O)(Oc2ccccc2F)Oc2ccccc2F)cc1", "inhibition": "inconclusive: 25.1%"}
{"compound": "Cc1ccc(NP(=O)(Oc2ccccc2F)Oc2ccccc2F)cc1C", "inhibition": "active: 29.6%"}
{"compound": "CCOP(=O)(OCC)c1ccc(OP(=O)(c2cccc([N+](=O)[O-])c2)c2cccc([N+](=O)[O-])c2)cc1", "inhibition": "active: 56.6%"}
{"compound": "NC(N)=Nc1ccc2[nH]c3c(c2c1)C[C@@]1(O)[C@H]2Cc4ccc(O)c5c4[C@@]1(CCN2CC1CC1)[C@H]3O5", "inhibition": "active: 59.6%"}
{"compound": "C[N+]1(C)CCc2cc3c(cc2[C@H]1[C@@H]1OC(=O)c2c1ccc1c2OCO1)OCO3", "inhibition": "inconclusive: 23.4% and inconclusive: 24.5%"}
{"compound": "CN(C/N=C(\\N)N[N+](=O)[O-])S(=O)(=O)c1ccccc1", "inhibition": "inconclusive: 18.7%"}
{"compound": "CC(c1ccccc1)(c1ccccc1)c1ccncc1", "inhibition": "inconclusive: 13.8%"}
{"compound": "CN(C)C(Cc1ccccc1)C(=O)c1c[nH]c2ccccc12", "note": "(stereo unspecified)", "inhibition": "inactive: 3.76%"}
{"compound": "O=C1CC(=O)N(c2ccc3c(c2)OCO3)C(=O)N1", "inhibition": "inconclusive: 23.1%"}
{"compound": "CC1=CC2/C=C(\\C)CCC(O)C(O)/C=C/C(=O)C23C(=O)NC(CC(C)C)C3C1C", "note": "(stereo unspecified)", "inhibition": "inactive: -0.305%"}
{"compound": "O=C(CCc1nnc2ccc(NCc3ccccc3Cl)nn12)N1CCC2(CC1)OCCO2", "inhibition": "inconclusive: 16.1%"}
{"compound": "COC(=O)C1=C(c2ccc(OCc3ccccc3)cc2)C[C@@H]2CC[C@H]1N2C(=O)NCCCc1ccccc1", "inhibition": "inconclusive: 24.6%"}
{"compound": "CCOC(=O)C1CCN(/C=C2\\C(=O)NC(=S)N(CC)C2=O)CC1", "inhibition": "inactive: 3.22%"}
{"compound": "C[C@@H]1CCC2[C@@H](C)C(=O)O[C@@H]3OC4(C)CCC1[C@@]23OO4", "note": "(stereo partly specified)", "inhibition": "inactive: 0.91%"}
{"compound": "Cc1cccc(-n2c(-c3ccc([N+](=O)[O-])cc3)nc3ccccc3c2=O)c1", "inhibition": "inconclusive: 32.1%"}
{"compound": "CC[C@@H]1C=CC=CC[C@H](C)[C@@H](O)[C@@H](C)C(=O)[C@H](C)[C@@H](O)[C@H](C)C(=O)[C@H](C)[C@@H](O)[C@H](C)C=CC(=O)O[C@H]2[C@@H](C)[C@@H](CC1)O[C@@]1(CC[C@@H](C)[C@@H](C[C@H](C)O)O1)[C@@H]2C", "inhibition": "active: 49.5%"}
{"compound": "O=C(Cc1ccccc1)OCC(=O)c1ccccc1", "inhibition": "inactive: -0.885%"}
{"compound": "N=C(N)c1c(O)n(C2CCCCC2)c(=O)n(C2CCCCC2)c1=O", "inhibition": "active: 28.4%"}
{"compound": "CCOC(=O)c1cc(CC)sc1/N=C/c1c(O)[nH]c(=S)[nH]c1=O", "inhibition": "inactive: 2.61%"}
{"compound": "C=CCc1cc(C=C2C(=O)N(C)C(=O)N(C)C2=O)cc(OCC)c1OCc1ccccc1", "inhibition": "inconclusive: 11%"}
{"compound": "CCOP(=O)(OCC)c1cc(C)c(O)c(C(C)(C)C)c1", "inhibition": "inconclusive: 14.7%"}
{"compound": "CC(C)[C@]12O[C@H]1[C@@H]1O[C@]13[C@]1(O[C@H]1C[C@H]1C4=C(CC[C@@]13C)C(=O)OC4)[C@@H]2O", "inhibition": "inconclusive: 19%"}
{"compound": "CC(=O)c1cccc(NC(=O)N2C[C@H]3C[C@@H](C2)c2cccc(=O)n2C3)c1", "inhibition": "inactive: 1.66%"}
{"compound": "Cc1cc(/C=C2/C(=O)NC(=O)N(Cc3ccco3)C2=O)c(C)n1-c1ccccc1O", "inhibition": "inactive: 8.49%"}
{"compound": "CN(C)S(=O)(=O)c1cc(NC(=O)C[N+]23CCN(CC2)CC3)ccc1Cl", "inhibition": "inconclusive: 17.6%"}
{"compound": "O=[N+]([O-])c1ccc(CN2CC=C(c3ccccc3)CC2)cc1", "inhibition": "inconclusive: 13.6%"}
{"compound": "CCc1nnc(NS(=O)(=O)c2ccc(N=Cc3c(O)n(-c4ccc(Cl)cc4)c(=O)[nH]c3=O)cc2)s1", "inhibition": "inactive: 2.09%"}
{"compound": "COC(=O)C1=C(c2ccc(OCc3ccccc3)cc2)C[C@@H]2CC[C@H]1N2C(=O)NCc1ccc(N(C)C)cc1", "inhibition": "inconclusive: 16%"}
{"compound": "Cc1ccccc1-n1c(O)c(C=Nc2ccc3c(c2)OCO3)c(=O)[nH]c1=O", "inhibition": "inactive: 6.09%"}
{"compound": "COC(=O)C1=C(c2ccccc2OCc2ccccc2)C[C@@H]2CC[C@H]1N2C(=O)NCCOc1ccc(OC)cc1", "inhibition": "inactive: -2.14%"}
{"compound": "CCC1C2Cn3c(nc4ccccc43)C1N(C)O2", "note": "(stereo unspecified)", "inhibition": "inconclusive: 12.6%"}
{"compound": "CCC(=NCc1cccnc1)c1c(O)n(-c2ccc(Cl)cc2)c(=O)[nH]c1=O", "inhibition": "inconclusive: 8.28%"}
{"compound": "CCC(=O)CC(c1ccc([N+](=O)[O-])cc1)c1c(O)c2ccccc2oc1=O", "note": "(stereo unspecified)", "inhibition": "inconclusive: 22.6%"}
{"compound": "NC(=O)c1cc(N2CC2)c([N+](=O)[O-])cc1[N+](=O)[O-]", "inhibition": "inconclusive: 17.7%"}
{"compound": "COc1ccc(CN2C(=O)NC(=O)/C(=C\\c3cc(OC)c(OC)c(OC)c3)C2=O)cc1", "inhibition": "inconclusive: 17.4%"}
{"compound": "C=CCN1C(=O)/C(=C/c2ccc3c(c2)CCCN3CCC)C(=O)NC1=S", "inhibition": "inactive: 2.77%"}
{"compound": "Cc1ccc(N2C(=O)NC(=O)/C(=C\\c3cc(C)n(-c4ccc(C(=O)O)cc4)c3C)C2=O)cc1", "inhibition": "inactive: 3.53%"}
{"compound": "CCN(CC)c1ccc(N=Cc2c(O)n(Cc3ccco3)c(=O)[nH]c2=O)cc1", "inhibition": "inactive: -0.293%"}
{"compound": "S=C1NC2(CCCCC2)NC12CCCCC2", "inhibition": "inactive: -3.63%"}
{"compound": "O=C(O)CSC(=S)N1CC2CC(C1)c1cccc(=O)n1C2", "note": "(stereo unspecified)", "inhibition": "inconclusive: 26.9%"}
{"compound": "O=[N+]([O-])c1cc(S(=O)(=O)c2ccc(O)c([N+](=O)[O-])c2)ccc1O", "inhibition": "inconclusive: 14.8%"}
{"compound": "CCC(=NCCN1CCOCC1)c1c(O)n(-c2ccccc2C)c(=O)[nH]c1=O", "inhibition": "inconclusive: 23.6%"}
{"compound": "CCOC(=O)[C@@H]1[C@H]2COc3ccc(Br)cc3[C@H]2N2C(=O)N(c3cccc(C)c3)C(=O)[C@]12C", "inhibition": "inconclusive: 16.3%"}
{"compound": "CN(C)C(=O)Oc1ccc(Cl)c2cccnc12", "inhibition": "inconclusive: 13%"}
{"compound": "NP(=O)(Oc1ccccc1Cl)Oc1ccccc1Cl", "inhibition": "inactive: -2.82%"}
{"compound": "Cc1c(/C=N/O)c2ccccc2n1C", "inhibition": "inconclusive: 16.3%"}
{"compound": "CC(Cc1ccccc1)NC(=O)c1ccc(N)cc1", "note": "(stereo unspecified)", "inhibition": "inactive: -9.58%"}
{"compound": "CCCNC(=O)N1[C@H]2CC[C@@H]1C(C(=O)OC)=C(c1ccc(F)cc1F)C2", "inhibition": "inactive: -0.624%"}
{"compound": "Cn1c(O)c(/C=C2/C=CC=N2)c(=O)[nH]c1=O", "inhibition": "inactive: 2.57%"}
{"compound": "CN1C2c3ccccc3C3C4c5ccccc5C(C31)C(C2[N+](=O)[O-])N4C", "note": "(stereo unspecified)", "inhibition": "inconclusive: 24.4%"}
{"compound": "O=C(C(=O)N1CCC2(CC1)OCCO2)c1c[nH]c2ccccc12", "inhibition": "inconclusive: 17.7%"}
{"compound": "FC(F)(F)c1ccc2c(c1)N(CCCN1CCN(CCCl)CC1)c1ccccc1S2", "inhibition": "inactive: 11.7%"}
{"compound": "O=C(Nc1ccc(F)cc1F)c1cccnc1Oc1cccc(C(F)(F)F)c1", "inhibition": "inconclusive: 5.29%"}
{"compound": "C/C=C(\\C)C(=O)OC1C(C)=C2C(C1OC(=O)CCCCC)C(C)(OC(C)=O)CC(OC(=O)CCC)C1(O)C2OC(=O)C1(C)O", "note": "(stereo unspecified)", "inhibition": "inconclusive: 22%"}
{"compound": "CC(=O)O[C@H]1C[C@@H]2CC[C@@H]3[C@H](CC[C@]4(C)C(=O)CC[C@@H]34)[C@@]2(C)C[C@@H]1OC(C)=O", "inhibition": "inactive: 0.258%"}
{"compound": "COc1cc2c(cc1O)C[C@H]1c3c(cc(O)c(OC)c3-2)CCN1C", "inhibition": "inactive: -28.3%"}
{"compound": "CCOC(=O)C1SC2(C(F)(F)F)CC1(O)c1c(C)cc(C)nc1O2", "note": "(stereo unspecified)", "inhibition": "active: 43.6%"}
{"compound": "C=CCn1c(O)c(C(CC)=NCCN2CCN(C(=S)NC)CC2)c(=O)[nH]c1=O", "inhibition": "inconclusive: 13.4%"}
{"compound": "COc1ccc(CN2CCCC(C(=O)c3ccc(Cl)cc3)C2)c(O)c1", "note": "(stereo unspecified)", "inhibition": "inconclusive: 20.2%"}
{"compound": "CC[N+](C)(CC)CCCCOc1ccc2c(c1)C(=O)c1cc(OCCCC[N+](C)(CC)CC)ccc1-2", "inhibition": "inconclusive: 23.6%"}
{"compound": "COc1ccc(CCNC(=O)c2c(N)n(CCN3CCOCC3)c3nc4ccccc4nc23)cc1OC", "inhibition": "inactive: 5.03%"}
{"compound": "COC(=O)C1=C(c2cccc(OCc3ccccc3)c2)C[C@@H]2CC[C@H]1N2C(=O)NCc1ccc(C(F)(F)F)cc1", "inhibition": "inconclusive: 24.3%"}
{"compound": "CN(C)[C@@H]1C(=O)C(C(N)=O)=C(O)[C@@]2(O)C(=O)C3=C(O)c4c(O)cccc4[C@@](C)(O)[C@H]3[C@H](O)[C@@H]12", "inhibition": "inactive: 5.69% and inactive: -0.538% and inactive: -2.3%"}
{"compound": "C/C(=N\\NC(=S)Nc1ccccc1)c1c(O)n(C)c(=O)n(C)c1=O", "inhibition": "inconclusive: 23.4%"}
{"compound": "CCOC(=O)c1c(N)n(Cc2ccccc2)c2nc3ccccc3nc12", "inhibition": "inconclusive: 14.5%"}
{"compound": "C=CCN1C(=O)/C(=C\\c2ccc(N3CCOCC3)o2)C(=O)NC1=S", "inhibition": "inconclusive: 17.7%"}
{"compound": "CCCCN=C[C@]12CCC(O)CC1(O)CCC1[C@@H]2CC[C@]2(C)[C@H](C3C=CC(=O)O3)CCC12O", "note": "(stereo partly specified)", "inhibition": "inactive: 0.765%"}
{"compound": "CC(C(=O)c1c[nH]c2ccccc12)N1CCSCC1", "note": "(stereo unspecified)", "inhibition": "inactive: -4.54%"}
{"compound": "CN=C(SCC(=O)c1cccc(Cl)c1)c1c(O)n(C)c(=O)n(C)c1=O", "inhibition": "inconclusive: 23.9%"}
{"compound": "COc1ccc(C(=O)C2CCCN(Cc3cnc(C)s3)C2)cc1OC", "note": "(stereo unspecified)", "inhibition": "inconclusive: 22.5%"}
{"compound": "CC[C@H](C)[C@@H]1O[C@@]2(C=CC1C)CC1C[C@@H](CC=C(C)C(O[C@H]3CC(OC)C(O[C@H]4CC(OC)C(O)C(C)O4)C(C)O3)C(C)C=CC=C3CO[C@@H]4C(O)C(C)=C[C@@H](C(=O)O1)[C@]34O)O2", "note": "(stereo partly specified)", "inhibition": "inconclusive: 25.5%"}
{"compound": "C=CCn1c(O)c(C=NCCN2CCOCC2)c(=O)[nH]c1=S", "inhibition": "inactive: 2%"}
{"compound": "O=C(O)c1cc[c]([Hg][Cl])cc1", "inhibition": "active: 95.1%"}
{"compound": "CN=C(SCc1ccccc1)c1c(O)n(C)c(=O)n(C)c1=O", "inhibition": "inactive: 5.54%"}
{"compound": "COC(=O)C1=C(c2ccc(OC(F)(F)F)cc2)C[C@@H]2CC[C@H]1N2C(=O)NCCOc1ccccc1Cl", "inhibition": "active: 33.6%"}
{"compound": "Fc1ccccc1CNCCc1c[nH]c2ccccc12", "inhibition": "inconclusive: 18.5%"}
{"compound": "O=c1[nH]c(=S)[nH]c(O)c1N=Nc1ccc(S(=O)(=O)N2CCOCC2)cc1", "inhibition": "inconclusive: 20%"}
